Measurements reported in PubChem BioAssay AID686938 (Drosophila RNAi Screening Center, 2013).
Test: 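Fly genes required for calcium entry once internal stores are emptied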 (primary screen). Cells: Drosophila S2R+ cells. Knock-down reagent: long dsRNA against Drosophila genes, about 0.25 µg dsRNA per well, roughly 10,000 cells. Time to read-out: 5 days of knock-down before the calcium assay. Challenge: thapsigargin (SERCA pump blocker) to empty calcium stores; entry signal taken 4 min after adding it. Detection: 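Duplicate raw fluo-4 intensities per well from a plate reader, at rest and four minutes after thapsigargin emptied calcium stores; entry-to-rest ratio filled for only some wells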. Scale: calcium entry signal: higher = stronger calcium signal after store depletion; entry to resting ratio: higher = more calcium entry relative to resting level; resting calcium signal: higher = higher resting calcium signal. Active means: 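Hit if the duplicate-averaged plate z-score for entry over resting signal is under −3; wells with weak total dye signal (Fmax z < −2) or more than 5 off-targets removed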. Calls: active = strongly reduced calcium entry; inactive = no strong reduction.
The deposit covers about 23,000 reagents; shown is an unselected part of those with a known target gene and a result. In the full data, 75 (0.33%) got an active call. 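Raw plate signals without normalisation; calls rest on plate z-scores that were not deposited; ratio present for only 364 wells.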 Entries without a mark were called inactive. The record does not give: the dose of the treatment.

The first 2 records as a preview:
| Gene | dsRNA | calcium entry signal, replicate 1 (fluorescence units) | calcium entry signal, replicate 2 (fluorescence units) | entry to resting ratio | resting calcium signal, replicate 1 (fluorescence units) | resting calcium signal, replicate 2 (fluorescence units) |
| --- | --- | --- | --- | --- | --- | --- |
| mldr (mulder) | DRSC18100 | 2.57e7 | 3.94e7 | – | 1.33e7 | 1.83e7 |
| CG33278 | DRSC10336 | 2.81e7 | 3.59e7 | – | 1.32e7 | 1.55e7 |

Results, from the start:
| Gene | dsRNA | calcium entry signal, replicate 1 (fluorescence units) | calcium entry signal, replicate 2 (fluorescence units) | entry to resting ratio | resting calcium signal, replicate 1 (fluorescence units) | resting calcium signal, replicate 2 (fluorescence units) |
| --- | --- | --- | --- | --- | --- | --- |
| mldr (mulder) | DRSC18100 | 2.57e7 | 3.94e7 | – | 1.33e7 | 1.83e7 |
| CG33278 | DRSC10336 | 2.81e7 | 3.59e7 | – | 1.32e7 | 1.55e7 |
| CG13392 | DRSC02262 | 2.97e7 | 4.68e7 | – | 1.54e7 | 1.83e7 |
| CG13070 | DRSC09953 | 3.60e7 | 4.67e7 | – | 1.75e7 | 1.88e7 |
| hoe1 (hoepel1) | DRSC00265 | 3.86e7 | – | – | 1.98e7 | – |
| hoe1 (hoepel1) | DRSC00333 | 3.33e7 | 3.30e7 | – | 1.57e7 | 1.58e7 |
| hoe1 (hoepel1) | DRSC00353 | 3.39e7 | 4.14e7 | – | 1.73e7 | 1.95e7 |
| Dpit47 (DNA polymerase interacting tpr containing protein of 47kD) | DRSC04985 | 4.28e7 | 3.96e7 | – | 2.00e7 | 1.89e7 |
| CG34115 | DRSC03840 | 3.40e7 | 5.12e7 | – | 1.46e7 | 1.99e7 |
| CG31321 | DRSC13028 | 2.82e7 | 4.10e7 | – | 1.31e7 | 1.72e7 |
| CG14369 | DRSC14831 | 2.75e7 | 4.17e7 | – | 1.45e7 | 6.63e7 |
| Atet (ABC transporter expressed in trachea) | DRSC00263 | 1.85e7 | 1.97e7 | – | 9.99e6 | 1.07e7 |
| CG16974 | DRSC02551 | 4.98e7 | – | – | 2.41e7 | – |
| HLH3B (Helix loop helix protein 3B) | DRSC18669 | 3.39e7 | 4.40e7 | 1.8 | 1.90e7 | 1.84e7 |
| CG4945 | DRSC06904 | 3.54e7 | 3.59e7 | – | 1.74e7 | 1.78e7 |
| Hel25E (Helicase at 25E) | DRSC03342 | 2.40e7 (active) | – | – | 2.32e7 | – |
| yellow-e3 | DRSC15170 | 2.90e7 | 4.11e7 | – | 1.38e7 | 4.72e7 |
| CG9308 | DRSC04539 | 4.77e7 | 4.39e7 | – | 2.11e7 | 1.89e7 |
| CG13054 | DRSC09935 | 3.30e7 | 5.93e7 | – | 1.76e7 | 2.11e7 |
| kek4 (kekkon 4) | DRSC03220 | 5.03e7 | – | – | 2.54e7 | – |
| CG30192 | DRSC03977 | 3.01e7 | 4.28e7 | – | 1.45e7 | 4.24e7 |
| OtopLa (Otopetrin-like a) | DRSC17787 | 2.94e7 | 6.25e7 | – | 1.43e7 | 3.38e7 |
| OtopLa (Otopetrin-like a) | DRSC18133 | 3.30e7 | 4.27e7 | – | 1.62e7 | 1.96e7 |
| OtopLa (Otopetrin-like a) | DRSC23226 | 3.76e7 | 3.78e7 | – | 1.81e7 | 1.82e7 |
